Values from PubChem BioAssay AID1671195 (Yale University, 2021)

Purpose: 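Genes whose knockdown alters LDL uptake in liver cancer cells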 (primary screen)
Cell system: human Huh7 hepatoma cells
Reagents: siRNA pool against human genes, 18 nM
Duration: about 2 to 2.5 days of knockdown, then 8 h LDL uptake
Challenge: DiI-labelled LDL at 30 µg/ml for 8 h, in lipoprotein-deficient serum medium
Measured: 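Fluorescent LDL signal imaged in cells, scaled to the plate median, robust z-score for each replicate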
Scale: robust z-score: higher = more LDL uptake after knockdown
Hit rule: 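Active when two or more replicates show a robust z-score above 2 or below -2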
This is one part, drawn at random, of about 22,000 deposited reagents. About 1,510 of all reagents (6.9%) count as active. 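Active includes knockdowns raising or lowering LDL uptake; positive z-scores mean more uptake, negative mean less.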

target gene	robust z-score, replicate 1	robust z-score, replicate 2	robust z-score, replicate 3	Outcome
PBK (PDZ binding kinase)	0.107	-0.467	-0.0956	inactive
LOC442084 (retired record)	-1.59	-1.56	-1.35	inactive
TMOD2 (tropomodulin 2)	0.563	-0.145	-0.0293	inactive
RAB19 (RAB19, member RAS oncogene family)	-1.24	-1.19	-1.06	inactive
SNX25 (sorting nexin 25)	-0.0457	-0.395	0.0129	inactive
KARS1 (lysyl-tRNA synthetase 1)	0.905	1.03	1.8	inactive
RPL39L (ribosomal protein L39 like)	-0.905	0.789	0.763	inactive
STAT5B (signal transducer and activator of transcription 5B)	0.0604	-0.0477	-0.306	inactive
ZNF677 (zinc finger protein 677)	0.651	0.931	0.901	inactive
MT1H (metallothionein 1H)	0.966	-0.89	0.271	inactive
IFIT3 (interferon induced protein with tetratricopeptide repeats 3)	1.85	1.45	1.98	inactive
PATE2 (prostate and testis expressed 2)	0.544	0.159	-0.213	inactive
PTHLH (parathyroid hormone like hormone)	0.474	0.921	0.325	inactive
VPS72 (vacuolar protein sorting 72 homolog)	1.4	1.02	1.4	inactive
WIPF2 (WAS/WASL interacting protein family member 2)	-0.575	-0.938	-0.344	inactive
PDE4C (phosphodiesterase 4C)	1.04	0.751	0.772	inactive
CAPN12 (calpain 12)	0.967	1.29	3.09	inactive
STAG3 (STAG3 cohesin complex component)	0.969	-0.642	1.87	inactive
CLASP1 (cytoplasmic linker associated protein 1)	0.624	-0.533	0.307	inactive
SCGB1D1 (secretoglobin family 1D member 1)	-0.613	-1.13	0.187	inactive
C2orf78 (chromosome 2 open reading frame 78)	0.171	0.728	0.357	inactive
CAP1 (cyclase associated actin cytoskeleton regulatory protein 1)	0.563	0.796	0.0387	inactive
ZIC1 (Zic family zinc finger 1)	-0.824	-1.16	-1.04	inactive
ANP32B (acidic nuclear phosphoprotein 32 family member B)	2.99	2.65	2.25	active
LOC387630 (retired record)	0.716	0.569	0.689	inactive
LINC01104 (long independently transcribed non-coding RNA 1104)	0.75	0.0429	0.644	inactive
TMPRSS15 (transmembrane serine protease 15)	-0.778	-1.07	-0.455	inactive
CDC14B (cell division cycle 14B)	0.62	0.71	0.844	inactive

2 entries from above, reformatted:
target gene,"robust z-score, replicate 1","robust z-score, replicate 2","robust z-score, replicate 3",Outcome
KARS1 (lysyl-tRNA synthetase 1),0.905,1.03,1.8,inactive
RPL39L (ribosomal protein L39 like),-0.905,0.789,0.763,inactive
